Experimental data taken from patent CN109678957A.
Results are given in words; binding and its absence hold for the method and conditions named. Some entries that bind do so weakly or less than the wild type.

By UniProt entry, the sequences of proteins in these tests, tags left out. Residues count along the entry.
UniProt Q969D9, residues 29-159: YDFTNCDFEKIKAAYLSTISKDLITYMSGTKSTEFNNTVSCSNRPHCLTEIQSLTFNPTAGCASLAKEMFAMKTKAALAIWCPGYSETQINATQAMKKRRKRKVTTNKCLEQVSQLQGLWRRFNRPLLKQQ

Molecular target: Hela细胞上清中TSLP蛋白 (TSLP protein in the culture supernatant of the human cervical cancer cell line Hela) (human) (UniProt Q969D9)
Experiment: sandwich ELISA, antibody coated as capture antibody at 0.1 mg/ml, Hela cell supernatant

B1: 抗人TSLP单克隆抗体 (anti-human TSLP monoclonal antibody, from hybridoma ascites, Example 3) (antibody, IgG1, V domains shown)
VH: QIQLVQSGPELKKPGETVKISCKASGYTFTNYGMNWVKQAPGKGLKWMGWINTYTGEPTYADDFKGRFAFSLETSASTAYLQINNLKNEDMATYFCARGLTGTRGRFAYWGQGTLVTVSA
VL: DIVMTQSHKFMSTSVGDRVSITCKASQDVSTAVAWYQQKPGQSPKLLIYWASTRHTGVPDRFTGSGSGTDYTLTISSVQAEDLALYYCQQHYSTPPTFGGGTKLEIK
- binding: binds
